The values below come from publication PMC3963067.

Protein sequences, listed by entry. Tags and fused reporters are not part of them. Lines headed by an entry give the natural chain unless they say otherwise; changes in a name come on top.
UniProt Q63HN8: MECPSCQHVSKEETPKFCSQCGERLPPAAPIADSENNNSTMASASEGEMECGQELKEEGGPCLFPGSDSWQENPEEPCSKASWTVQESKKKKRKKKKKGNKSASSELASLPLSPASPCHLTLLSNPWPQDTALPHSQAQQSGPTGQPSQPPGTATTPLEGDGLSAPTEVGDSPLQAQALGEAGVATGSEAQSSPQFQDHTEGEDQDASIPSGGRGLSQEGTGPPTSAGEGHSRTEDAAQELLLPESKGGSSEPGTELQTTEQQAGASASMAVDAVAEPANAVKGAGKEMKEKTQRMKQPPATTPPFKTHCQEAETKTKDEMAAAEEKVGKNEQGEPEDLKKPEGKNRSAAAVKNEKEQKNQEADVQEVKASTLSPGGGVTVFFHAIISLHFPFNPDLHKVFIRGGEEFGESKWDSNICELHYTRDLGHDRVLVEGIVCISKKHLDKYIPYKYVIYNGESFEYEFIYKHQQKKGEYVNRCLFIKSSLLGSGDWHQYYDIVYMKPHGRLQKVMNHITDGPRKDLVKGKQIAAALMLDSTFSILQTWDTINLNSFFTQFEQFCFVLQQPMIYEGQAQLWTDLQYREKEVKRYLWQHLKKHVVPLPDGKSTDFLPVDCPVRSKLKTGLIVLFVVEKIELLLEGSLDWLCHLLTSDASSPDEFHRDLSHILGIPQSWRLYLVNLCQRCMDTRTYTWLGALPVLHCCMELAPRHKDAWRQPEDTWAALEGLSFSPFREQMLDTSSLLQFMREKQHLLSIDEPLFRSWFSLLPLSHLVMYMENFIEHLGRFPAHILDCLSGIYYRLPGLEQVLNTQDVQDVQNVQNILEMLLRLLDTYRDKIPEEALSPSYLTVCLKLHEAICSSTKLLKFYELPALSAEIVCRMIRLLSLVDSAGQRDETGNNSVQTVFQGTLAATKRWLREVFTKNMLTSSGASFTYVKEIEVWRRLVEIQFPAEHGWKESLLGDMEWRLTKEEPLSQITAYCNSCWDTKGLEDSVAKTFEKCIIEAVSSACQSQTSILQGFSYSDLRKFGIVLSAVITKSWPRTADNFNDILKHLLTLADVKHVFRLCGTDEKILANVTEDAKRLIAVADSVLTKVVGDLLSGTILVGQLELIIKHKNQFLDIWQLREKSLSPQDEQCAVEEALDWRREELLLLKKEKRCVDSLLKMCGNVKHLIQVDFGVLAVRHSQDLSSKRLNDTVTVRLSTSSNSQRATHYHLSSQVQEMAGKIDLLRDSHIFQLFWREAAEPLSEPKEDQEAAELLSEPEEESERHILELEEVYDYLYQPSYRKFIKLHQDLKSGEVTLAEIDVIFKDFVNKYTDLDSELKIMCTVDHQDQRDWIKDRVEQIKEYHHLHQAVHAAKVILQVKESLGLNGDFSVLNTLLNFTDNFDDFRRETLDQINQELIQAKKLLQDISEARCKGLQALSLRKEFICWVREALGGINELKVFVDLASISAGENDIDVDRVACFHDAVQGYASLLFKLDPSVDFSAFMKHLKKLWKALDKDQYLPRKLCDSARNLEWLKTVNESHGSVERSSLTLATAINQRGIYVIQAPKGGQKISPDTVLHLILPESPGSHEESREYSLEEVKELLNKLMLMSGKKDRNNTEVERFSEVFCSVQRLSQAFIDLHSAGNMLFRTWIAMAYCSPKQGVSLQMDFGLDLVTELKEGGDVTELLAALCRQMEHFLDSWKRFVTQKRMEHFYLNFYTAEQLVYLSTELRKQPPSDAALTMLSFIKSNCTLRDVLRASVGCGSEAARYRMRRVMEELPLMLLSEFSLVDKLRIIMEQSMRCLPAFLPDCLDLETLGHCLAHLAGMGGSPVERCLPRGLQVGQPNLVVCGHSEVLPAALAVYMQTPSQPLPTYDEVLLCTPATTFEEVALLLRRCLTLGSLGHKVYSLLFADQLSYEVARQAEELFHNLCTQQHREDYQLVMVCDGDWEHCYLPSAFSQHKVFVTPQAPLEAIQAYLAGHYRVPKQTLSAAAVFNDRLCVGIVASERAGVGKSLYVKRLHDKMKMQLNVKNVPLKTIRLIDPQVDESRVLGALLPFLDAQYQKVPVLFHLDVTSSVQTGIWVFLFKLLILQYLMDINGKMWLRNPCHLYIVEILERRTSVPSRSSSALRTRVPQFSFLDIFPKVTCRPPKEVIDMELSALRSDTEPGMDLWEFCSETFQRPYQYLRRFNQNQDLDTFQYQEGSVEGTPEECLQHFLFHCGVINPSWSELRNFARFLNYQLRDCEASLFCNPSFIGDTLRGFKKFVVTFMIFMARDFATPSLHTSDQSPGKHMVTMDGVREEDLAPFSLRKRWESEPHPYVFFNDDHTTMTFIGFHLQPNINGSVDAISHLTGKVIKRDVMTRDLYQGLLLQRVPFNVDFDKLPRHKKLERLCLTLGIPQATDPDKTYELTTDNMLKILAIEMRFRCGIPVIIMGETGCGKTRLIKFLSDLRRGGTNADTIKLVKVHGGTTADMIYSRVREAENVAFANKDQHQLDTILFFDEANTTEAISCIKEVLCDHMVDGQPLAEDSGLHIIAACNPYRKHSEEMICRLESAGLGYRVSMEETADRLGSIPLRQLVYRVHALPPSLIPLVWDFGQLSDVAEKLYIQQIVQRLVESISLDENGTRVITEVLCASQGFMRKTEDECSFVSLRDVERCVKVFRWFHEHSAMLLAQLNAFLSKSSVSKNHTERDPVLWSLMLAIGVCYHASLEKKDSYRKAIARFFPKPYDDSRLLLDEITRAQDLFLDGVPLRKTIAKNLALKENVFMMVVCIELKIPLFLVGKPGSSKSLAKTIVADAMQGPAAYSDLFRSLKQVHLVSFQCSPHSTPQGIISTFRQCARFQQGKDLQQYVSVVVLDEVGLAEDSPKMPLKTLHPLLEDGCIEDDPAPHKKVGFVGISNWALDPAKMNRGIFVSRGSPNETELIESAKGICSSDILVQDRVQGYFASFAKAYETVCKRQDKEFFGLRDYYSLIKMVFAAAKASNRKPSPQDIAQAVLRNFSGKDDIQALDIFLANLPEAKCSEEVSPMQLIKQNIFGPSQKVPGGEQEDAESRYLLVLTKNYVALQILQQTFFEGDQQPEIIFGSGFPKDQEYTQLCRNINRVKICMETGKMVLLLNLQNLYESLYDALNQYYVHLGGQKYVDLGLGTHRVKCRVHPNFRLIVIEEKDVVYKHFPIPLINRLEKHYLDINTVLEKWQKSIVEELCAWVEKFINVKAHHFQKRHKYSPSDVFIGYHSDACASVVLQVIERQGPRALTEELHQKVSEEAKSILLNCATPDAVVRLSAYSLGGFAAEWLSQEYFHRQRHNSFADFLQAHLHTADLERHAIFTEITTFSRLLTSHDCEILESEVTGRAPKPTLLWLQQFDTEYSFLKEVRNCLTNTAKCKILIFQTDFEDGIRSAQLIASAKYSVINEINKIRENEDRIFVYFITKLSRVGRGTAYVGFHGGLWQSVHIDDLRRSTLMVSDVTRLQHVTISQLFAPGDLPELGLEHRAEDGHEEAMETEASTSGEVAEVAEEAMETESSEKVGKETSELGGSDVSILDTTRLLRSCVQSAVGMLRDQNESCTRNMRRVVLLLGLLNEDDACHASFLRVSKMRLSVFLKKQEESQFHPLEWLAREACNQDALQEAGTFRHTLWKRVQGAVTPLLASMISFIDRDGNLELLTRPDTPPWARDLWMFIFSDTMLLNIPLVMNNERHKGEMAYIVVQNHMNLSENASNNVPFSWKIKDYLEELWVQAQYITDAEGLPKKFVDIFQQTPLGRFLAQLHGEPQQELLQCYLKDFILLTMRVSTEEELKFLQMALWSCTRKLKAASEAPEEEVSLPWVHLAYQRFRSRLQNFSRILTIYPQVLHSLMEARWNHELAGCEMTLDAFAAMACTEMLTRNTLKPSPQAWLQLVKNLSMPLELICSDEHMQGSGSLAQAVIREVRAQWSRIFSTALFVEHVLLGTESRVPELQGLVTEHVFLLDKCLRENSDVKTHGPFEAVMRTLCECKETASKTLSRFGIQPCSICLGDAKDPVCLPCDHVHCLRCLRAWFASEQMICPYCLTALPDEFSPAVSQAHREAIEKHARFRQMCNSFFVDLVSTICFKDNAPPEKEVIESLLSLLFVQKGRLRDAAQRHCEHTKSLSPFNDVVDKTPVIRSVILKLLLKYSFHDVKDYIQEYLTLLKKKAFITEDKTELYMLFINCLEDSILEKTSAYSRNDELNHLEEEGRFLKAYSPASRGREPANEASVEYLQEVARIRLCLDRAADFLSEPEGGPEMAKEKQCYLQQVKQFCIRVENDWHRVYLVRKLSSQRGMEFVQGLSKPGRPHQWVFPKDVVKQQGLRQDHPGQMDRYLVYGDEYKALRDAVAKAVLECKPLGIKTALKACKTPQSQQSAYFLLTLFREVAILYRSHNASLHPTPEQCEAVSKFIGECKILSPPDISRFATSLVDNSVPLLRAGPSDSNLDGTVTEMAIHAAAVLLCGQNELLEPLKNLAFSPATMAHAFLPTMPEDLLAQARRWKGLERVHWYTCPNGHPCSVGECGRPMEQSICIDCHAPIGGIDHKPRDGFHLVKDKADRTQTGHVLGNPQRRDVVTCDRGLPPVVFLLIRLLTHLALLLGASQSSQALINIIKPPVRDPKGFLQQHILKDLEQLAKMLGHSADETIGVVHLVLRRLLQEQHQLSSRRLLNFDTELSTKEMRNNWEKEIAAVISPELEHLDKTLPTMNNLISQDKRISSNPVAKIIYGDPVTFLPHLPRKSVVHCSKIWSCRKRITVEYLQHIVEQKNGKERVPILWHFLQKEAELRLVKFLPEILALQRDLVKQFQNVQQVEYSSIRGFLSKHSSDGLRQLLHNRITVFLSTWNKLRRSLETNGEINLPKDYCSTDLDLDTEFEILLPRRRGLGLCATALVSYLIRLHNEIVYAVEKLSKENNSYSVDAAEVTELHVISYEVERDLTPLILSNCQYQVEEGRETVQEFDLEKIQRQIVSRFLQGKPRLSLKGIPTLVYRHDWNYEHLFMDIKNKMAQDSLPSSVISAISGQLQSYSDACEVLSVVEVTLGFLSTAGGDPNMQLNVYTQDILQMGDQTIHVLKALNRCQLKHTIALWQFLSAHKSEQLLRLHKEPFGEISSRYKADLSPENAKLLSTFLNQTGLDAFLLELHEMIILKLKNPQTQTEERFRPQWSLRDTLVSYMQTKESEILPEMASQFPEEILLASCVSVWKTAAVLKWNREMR

What all share (assay): co-IP; two differently tagged copies (C-terminal 3 × FLAG and cMyc) co-expressed in HEK-293 cells; lysate immunoprecipitated with anti-FLAG antibody, immunoblot with anti-Myc antibody; lysis buffer 1% NP-40, 150 mM KCl, 50 mM HEPES-NaOH pH 7.5
Test [1] addresses mysterin A2B2 mutant (second Walker A and B motifs mutated), 3 × FLAG- and Myc-tagged copies (human) (UniProt Q63HN8).
Test [2] has as its target mysterin B1B2 mutant (both Walker B motifs mutated), 3 × FLAG- and Myc-tagged copies (human) (UniProt Q63HN8).
The target of test [3] is mysterin A1A2 mutant (both Walker A motifs mutated), 3 × FLAG- and Myc-tagged copies (human) (UniProt Q63HN8).
For test [4], the target named is mysterin B2 single mutant (second Walker B motif mutated), 3 × FLAG- and Myc-tagged copies (human) (UniProt Q63HN8).
In test [5] the target is mysterin A1B1A2B2 mutant (all four Walker motifs mutated), 3 × FLAG- and Myc-tagged copies (human) (UniProt Q63HN8).
Test [6] has as its target mysterin A1B2 mutant (first Walker A and second Walker B motifs mutated), 3 × FLAG- and Myc-tagged copies (human) (UniProt Q63HN8).
Test [7] has as its target mysterin A2 single mutant (second Walker A motif mutated), 3 × FLAG- and Myc-tagged copies (human) (UniProt Q63HN8).
Test [8] concerns the target mysterin R4810K (disease-associated variant) (human) (UniProt Q63HN8).

These are yes or no findings as the source states them, for the method shown. In cells and extracts the contact can be indirect. Some binding calls cover weakened binding; strength is not graded here.

With “mysterin A2B2 mutant (second Walker A and B motifs mutated), 3 × FLAG- and Myc-tagged copies (from UniProt Q63HN8 1-5207)”, in test [1], the binding entry is reported as “binds”.
On to “mysterin B1B2 mutant (both Walker B motifs mutated), 3 × FLAG- and Myc-tagged copies (from UniProt Q63HN8 1-5207)”, for which the binding entry in test [2] is recorded as “binds”.
Regarding “mysterin A1A2 mutant (both Walker A motifs mutated), 3 × FLAG- and Myc-tagged copies (from UniProt Q63HN8 1-5207)”, the binding result in test [3] is “binds”.
Take “mysterin B2 single mutant (second Walker B motif mutated), 3 × FLAG- and Myc-tagged copies (from UniProt Q63HN8 1-5207)”: the binding entry in test [4] was “binds”.
For the substance “mysterin A1B1A2B2 mutant (all four Walker motifs mutated), 3 × FLAG- and Myc-tagged copies (from UniProt Q63HN8 1-5207)”, the binding result in test [5] is recorded as “binds”.
With “mysterin A1B2 mutant (first Walker A and second Walker B motifs mutated), 3 × FLAG- and Myc-tagged copies (from UniProt Q63HN8 1-5207)”, the binding result in test [6] is reported as “binds”.
Take “mysterin A2 single mutant (second Walker A motif mutated), 3 × FLAG- and Myc-tagged copies (from UniProt Q63HN8 1-5207)”: the binding result in test [7] was “binds”.
As to “mysterin R4810K (disease-associated variant) (from UniProt Q63HN8 1-5207)”, the binding entry in test [8] is recorded as “binds”.
